PubChem BioAssay AID493246 | Drosophila RNAi Screening Center – 2011

- Assay: 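Genes fly cells need to grow and stay alive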 (primary screen)
- System: Drosophila Kc and S2R+ cells
- Reagent: long dsRNA against Drosophila genes
- Detection: 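Cell number per well after knock-down, printed as raw plate values; calls were based on per-plate z-scores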
- Scale: Kc cell number and S2R+ cell number: higher = more cells remaining
- Active means: 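Active when the per-plate z-score of cell number is 3 or more in the direction of fewer cells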
The screen tested about 21,000 reagents; this is an unselected part of those with a known target gene and a result. In the full data, 429 (2%) are marked active. 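Values are raw and not normalised between plates; calls rest on per-plate z-scores that were not deposited.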 Names joined by + are all predicted targets of the reagent. Not stated in the record: the amount of reagent, the time to read-out.

Target gene	amplicon	Kc cell number, rep 1	Kc cell number, rep 2	S2R+ cell number, rep 1	S2R+ cell number, rep 2	activity call
CG11149	DRSC02130	1.51e6	1.35e6	1.13e6	1.21e6	inactive
ham	DRSC02070	1.57e6	1.70e6	1.20e6	3.30e5	inactive
ham	DRSC02512	1.61e6	1.69e6	1.30e6	3.01e5	inactive
ham	DRSC02513	1.53e6	1.61e6	1.27e6	3.14e5	inactive
in	DRSC11888	1.40e6	1.64e6	1.24e6	1.31e6	inactive
Elp5	DRSC08547	1.37e6	1.44e6	9.27e5	1.16e6	inactive
mia	DRSC12137	1.56e6	1.64e6	1.14e6	1.17e6	inactive
CG13721	DRSC08330	1.35e6	1.41e6	1.14e6	1.21e6	inactive
Polr3C	DRSC14490	1.56e6	1.66e6	1.27e6	1.42e6	inactive
Aldh	DRSC02717	1.54e6	1.60e6	1.19e6	1.32e6	inactive
Vamp7	DRSC06599	1.83e6	1.76e6	1.36e6	1.61e6	inactive
CG14356	DRSC14819	1.47e6	1.23e6	7.88e5	7.15e5	inactive
Pvf3	DRSC02284	1.61e6	1.60e6	1.20e6	1.30e6	inactive
Pvf3	DRSC02285	1.60e6	1.44e6	1.18e6	1.34e6	inactive
Pvf3	DRSC02286	1.64e6	1.57e6	1.11e6	1.27e6	inactive
Pvf3	DRSC02751	1.57e6	1.48e6	1.08e6	1.24e6	inactive
nec	DRSC06769	1.53e6	1.56e6	1.28e6	1.29e6	inactive
CG18765	DRSC15392	1.41e6	1.43e6	1.26e6	1.31e6	inactive
CG34181	DRSC01071	1.52e6	1.63e6	8.46e5	9.88e5	inactive
mask	DRSC15370	1.61e6	1.52e6	8.87e5	9.37e5	inactive
mask	DRSC16005	1.31e6	1.44e6	1.02e6	1.06e6	inactive
mask	DRSC16018	1.42e6	1.46e6	1.03e6	1.06e6	inactive
disco	DRSC20323	1.70e6	1.71e6	1.20e6	1.37e6	inactive
CG15370	DRSC18042	1.54e6	1.48e6	8.57e5	9.39e5	inactive
glu	DRSC03539	1.33e6	1.41e6	1.31e6	1.36e6	inactive
CycG	DRSC14324	4.75e5		5.81e5		inactive
pall	DRSC10364	1.21e6	1.31e6	1.32e6	1.21e6	inactive
Nup75	DRSC06947	1.25e6	1.18e6	9.50e5	1.08e6	inactive
CG32512	DRSC20519	1.37e6	1.32e6	1.02e6	1.14e6	inactive
CG32512	DRSC20551	1.50e6	1.55e6	1.03e6	1.17e6	inactive
CG8569	DRSC07214	1.38e6	1.46e6	1.18e6	1.26e6	inactive

Reprinted from the listing, 10 entries:
Target gene	amplicon	Kc cell number, rep 1	Kc cell number, rep 2	S2R+ cell number, rep 1	S2R+ cell number, rep 2	activity call
mask	DRSC15370	1.61e6	1.52e6	8.87e5	9.37e5	inactive
mask	DRSC16005	1.31e6	1.44e6	1.02e6	1.06e6	inactive
mask	DRSC16018	1.42e6	1.46e6	1.03e6	1.06e6	inactive
disco	DRSC20323	1.70e6	1.71e6	1.20e6	1.37e6	inactive
CG15370	DRSC18042	1.54e6	1.48e6	8.57e5	9.39e5	inactive
glu	DRSC03539	1.33e6	1.41e6	1.31e6	1.36e6	inactive
CycG	DRSC14324	4.75e5		5.81e5		inactive
pall	DRSC10364	1.21e6	1.31e6	1.32e6	1.21e6	inactive
Nup75	DRSC06947	1.25e6	1.18e6	9.50e5	1.08e6	inactive
CG32512	DRSC20519	1.37e6	1.32e6	1.02e6	1.14e6	inactive

Further results follow.
Target gene	amplicon	Kc cell number, rep 1	Kc cell number, rep 2	S2R+ cell number, rep 1	S2R+ cell number, rep 2	activity call
CG34148 + P5CDh2	DRSC13519	1.54e6	1.37e6	1.06e6	1.03e6	inactive
Cyp9c1	DRSC04607	1.41e6	1.51e6	1.19e6	1.33e6	inactive
CatB	DRSC03194	1.34e6	1.31e6	1.09e6	9.24e5	inactive
Coa7	DRSC20967	1.54e6	1.57e6	1.20e6	1.34e6	inactive
Su(Tpl)	DRSC10954	1.70e6	1.84e6	1.22e6	1.30e6	inactive
CG4880	DRSC19923	1.48e6	1.54e6	1.04e6	1.15e6	inactive
Fs	DRSC06258	1.35e6	1.41e6	1.02e6	1.01e6	inactive
Fs	DRSC06259	1.56e6	1.62e6	1.17e6	1.36e6	inactive
CG9514	DRSC20190	1.46e6	1.50e6	1.13e6	1.17e6	inactive
CG9514	DRSC20191	1.54e6	1.51e6	1.08e6	1.15e6	inactive
Cchl	DRSC15949	1.44e6	1.53e6	1.06e6	1.09e6	inactive
CG33299	DRSC01085	1.49e6	1.57e6	1.02e6	1.17e6	inactive
Dpy-30L1	DRSC02959	1.50e6	1.54e6	1.29e6	1.44e6	inactive
Lsm12a	DRSC19702	1.79e6	1.90e6	1.13e6	1.24e6	inactive
msd5	DRSC08560	1.42e6	1.34e6	9.41e5	1.12e6	inactive
DUBAI + Tmem18	DRSC05344	1.50e6	1.46e6	9.79e5	1.12e6	inactive
ATP8A	DRSC05421	1.42e6	1.41e6	9.84e5	1.14e6	inactive
ATP8A	DRSC06643	1.30e6	1.43e6	1.06e6	9.92e5	inactive
ATP8A	DRSC06644	1.47e6	1.49e6	1.21e6	1.38e6	inactive
CG42458	DRSC10335	1.18e6	1.22e6	5.54e5	5.81e5	active
CG32727	DRSC17519	1.21e6	1.44e6	1.03e6	1.06e6	inactive
CG1951	DRSC15403	5.44e5		8.62e5		inactive
CG13689	DRSC00358	1.49e6	1.55e6	1.03e6	1.17e6	inactive
beag	DRSC15296	1.60e6	1.62e6	1.20e6	1.24e6	inactive
CG32240	DRSC08093	1.60e6	1.62e6	1.03e6	1.18e6	inactive
Cyp6d4	DRSC16633	1.69e6	1.77e6	1.21e6	1.28e6	inactive
CG5084	DRSC06913	1.51e6	1.56e6	1.06e6	1.18e6	inactive
Stim	DRSC20158	5.82e5		9.29e5		inactive
